Data as given in the supplement of paper PMC10338343.
± gives the standard deviation. The entries are a selection whose mix differs from that of the whole data set. The uncertainty is large for many entries.

Test system: MILI (PIWIL2) piRISC loaded with L1MC piRNA (26 nt)
Assay: pre-steady-state target cleavage rate (min^-1); MIWI and MILI are mouse PIWI proteins and EfPiwi is from a freshwater sponge; tags in brackets are library labels; higher = faster piRNA-guided slicing of the target
Conditions: guide: L1MC piRNA 5'p-UAACUAAAUACUAUGCAAGCUGUAGG
In short: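 Sequencing of uncleaved targets, normalised to depth and to weakly complementary targets, was the readout of this Cleave-'n-Seq assay. A transcribed, DNA-blocked target RNA library (0.1 nM) was mixed with 1 nM active affinity-purified piRISC carrying one synthetic guide, with or without 500 nM GTSF1 partner protein, in HEPES–potassium acetate buffer at 33 °C for 0–8 or 0–960 min. Three trials were pooled, k3 was capped at 0.0001 min^-1, and a burst-and-steady-state fit gave the pre-steady-state cleavage rate.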

[1] = auxiliary factor: 500 nM mouse GTSF1
[2] = auxiliary factor: none (no GTSF1)

Sequence | pre-steady-state target cleavage rate [1] | pre-steady-state target cleavage rate [2]
UCCUGGAUGUCCUUGCAAGUAUUUAGUUA | 0.00288 ± 0.0041 | 0.00196 ± 0.0028
UCCUGGAUGAGCUUGCAUAGUGAUUUAGUUA | 0.00836 ± 0.0043 | 0.00434 ± 0.0027
UCCUGGAUGUCGUUGGAUACUAUUUAGUUA | < 0.0001 | < 0.0001
UCCUGGUACACCUUGCAUAGUAUAUAGUUA | 0.311 ± 0.059 | 0.00256 ± 0.004
UCCUGGAACAGCUUGCAUAGUAUUUAGCUA | – | 0.000658 ± 0.01
UCCUGGAUGUGCUUGCAUAGUAUUUAGUCUA | – | 0.000474 ± 0.019
UCCUGGAUGAGCUUGCAUACUAUUUAGUAA | 0.00877 ± 0.0036 | 0.00173 ± 0.0039
UCCUGGAUGUCGAACGUUUGUAUUUAGAUA | – | 0.000111 ± 0.036
UCCUGGAACAGCUUGCAUAGUAUAUUGUUA | 0.153 ± 0.029 | 0.0015 ± 0.0048
UCCUGGAACAGCUUGCAUAGUAUUUACUAA | – | 0.00165 ± 0.0039
UCCUGCUACAGCUUGCAUGGUAUUUAGUUA | 0.334 ± 0.018 | –
UCCUGGAUGUCGAACCAUAGUAUUGAGUUA | – | < 0.0001
UCCUCCAACAGCUUGCAUAGUUUUUAGUUA | 0.0522 ± 0.0087 | 0.00502 ± 0.0021
UCCUGGAUGUCGAACCAUACUAUUUUGUUA | – | 0.00033 ± 0.0096
UCCUCCUACAGCUUGCUAUGUAUUUAGUUA | 0.0502 ± 0.011 | 0.00506 ± 0.0018
UCCUCCUACAGCUUGCAUAGUAUUUUGUAA | – | 0.0015 ± 0.004
UCCUCGAACAGCUUGCAUAGUAUUUAGUAA | 0.242 ± 0.015 | 0.00453 ± 0.0022
UCCUGGAUGUCGAACCAUAGUAUUUUCAUA | – | 0.000245 ± 0.015
UCCUGGAUCUCGUUGCAUAGUAUUUAGUAA | 0.114 ± 0.018 | 0.003 ± 0.0027
UCCUGGAUGUCGAACGUAUGUAUUUACGUUA | – | 0.000268 ± 0.024
UCCUGGAUGUCGAACGUUAGUUUUUACUUA | 0.000148 ± 0.039 | –
UCCUGGAUGUCGAAGGAUAGUAUUUAGAUA | 0.000112 ± 0.035 | –

2 entries drawn at random from the list so far:
Sequence | pre-steady-state target cleavage rate [1] | pre-steady-state target cleavage rate [2]
UCCUGGAUGAGCUUGCAUACUAUUUAGUAA | 0.00877 ± 0.0036 | 0.00173 ± 0.0039
UCCUGGAACAGCUUGCAUAGUAUAUUGUUA | 0.153 ± 0.029 | 0.0015 ± 0.0048
